Laboratory results reported in US20030219427A1, “TPL-2/COT kinase and methods of use” (priority 1998, published 2003).
No constants are given. Whether binding was seen depends on the method and setting. Some entries that bind do so weakly or less than the wild type.

Biological target: T1, recombinant p105498-969 protein (Homo sapiens (Human)) (UniProt P19838)
T1 sequence: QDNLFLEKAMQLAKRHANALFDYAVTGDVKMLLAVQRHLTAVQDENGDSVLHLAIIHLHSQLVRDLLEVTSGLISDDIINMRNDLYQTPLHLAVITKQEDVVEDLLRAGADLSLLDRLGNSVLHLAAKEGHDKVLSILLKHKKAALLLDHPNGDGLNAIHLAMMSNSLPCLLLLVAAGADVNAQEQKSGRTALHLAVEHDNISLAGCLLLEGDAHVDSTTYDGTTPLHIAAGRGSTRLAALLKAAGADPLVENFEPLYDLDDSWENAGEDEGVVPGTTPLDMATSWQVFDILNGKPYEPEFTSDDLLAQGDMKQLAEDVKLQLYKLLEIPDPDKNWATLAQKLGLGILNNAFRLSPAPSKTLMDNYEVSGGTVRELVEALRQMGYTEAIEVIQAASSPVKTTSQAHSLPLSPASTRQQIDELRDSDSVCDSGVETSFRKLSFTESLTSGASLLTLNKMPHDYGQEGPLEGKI
Assay: trypsin digestion of p105 498-969 with and without the peptide

binding: binds
B1: synthetic peptide corresponding to the C-terminal 70 amino acids of TPL-2 (residues 398-467) (peptide)
peptide: CTSLDSALLERKRLLSRKELELPENIADSSCTGSTEESEMLKRQRSLYIDLGALAGYFNLVRGPPTLEYG
